Test results from PubChem BioAssay AID2685 (National Center for Advancing Translational Sciences (NCATS), 2010).
The whole screen tested about 320,000 compounds, of which about 2,100 (0.66%) were called active. This list was built around the results that the source calls inconclusive (neither active nor inactive); the mix of calls is not that of the screen. The call rests on the fitted dose curve; in most records, active means well fitted inhibition curve with a large enough effect in the signal ratio, with a control signal flat (not every such curve was filed as active); inconclusive means small, poorly fitted or top-dose-only effect, or effect the other way, or a change in a side signal; inactive means flat fitted curve, though single readings scatter; the % refers to the signal ratio. A potency beside an inconclusive call is a rough fit, not a confirmed value.

Assay: qHTS Assay for Lipid Storage Modulators in Drosophila S3 Cells
Details: BODIPY lipid droplet fluorescence, 18-24 h, cells fed with added oleic acid; lipid storage change, negative = inhibition: at 46.1 µM (top of the series) unless noted
How it was run: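 Drosophila S3 cells got compounds at several concentrations plus oleic acid (400 uM solution). Laser-scanning cytometry with 488 nm excitation read lipid droplets at 500-530 nm and cells at 575-640 nm. Percent activity was relative to 20 uM Triacsin C.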
On the % scale 0 is the no-effect control and ±100 the full control effect; potency means the concentration at half of the fitted maximal effect.

SMILES	lipid storage change, negative = inhibition	Potency	outcome
Cn1c(=NC(=O)c2ccc(S(=O)(=O)N3CCCc4ccccc43)cc2)sc2cc(S(C)(=O)=O)ccc21	inconclusive: 30.2%		
CN(C)c1ccc(-c2nc3cnccn3c2Nc2ccc3c(c2)OCCO3)cc1	inconclusive: 23.6%		
CSc1ccccc1NC(=O)COC(=O)CCCOc1ccc(C)cc1	inconclusive		
COc1cc(NC(=S)NC(=O)c2cc(C)cc(C)c2)ccc1NC(=O)c1cccs1	inconclusive: -19.4%		
CN1C=CC=C/C1=C1\SC(=S)N(Cc2ccccc2)C1=O		inconclusive: 8.2 µM [falling, partial curve, poor fit]	
CC(=O)c1c(C)[nH]c(C(=O)COC(=O)CN(C)S(=O)(=O)c2ccc(Cl)cc2)c1C		active: 5.8 µM	
Cc1cccn2c(=O)c3cc(C(=O)NCCCOC(C)C)sc3nc12	inconclusive: 12.6%		
CCOC(=O)/C(=N\Nc1ccccc1)c1csc(Nc2ccc(C)cc2)n1	inconclusive: 415%		
N/C(=N\OC(=O)CCCOc1ccccc1)c1cccc(Br)c1	inconclusive: 14.9%		
CN(C)CCCNC(=O)C1CCNCC1			inactive [at 46.1 µM]
Cc1ccc(C(=O)N2CCCC(CCC(=O)N3CCN(c4ccccn4)CC3)C2)cn1 (stereo unspecified)	inconclusive: -22.1%		
CCN(CC(=O)Nc1c(F)cccc1F)C(=O)c1ccc(S(=O)(=O)N2CCCC2)cc1	inactive: 24.8%		
CCOC(=O)c1[nH]c(C)c(C(=O)N(CC)CC)c1C	inconclusive: 4.14%		
CCOC(=O)C1CCN(S(=O)(=O)c2cccc3nonc23)CC1	inconclusive: 17.5%		
COC(=O)c1c2c(nc3ccccc13)CCC2		inconclusive: 2.31 µM [activator, partial curve]	
Cc1cc(Nc2c(C)n(C)n(-c3ccccc3)c2=O)c2ccccc2n1	inactive: -9.37%		
Cc1coc(=N)n1CC(=O)c1ccc(Cl)cc1	inactive: 12.1%		
CN(C)NC(=S)NC1(C)CCS(=O)(=O)C1 (stereo unspecified)		inconclusive: 0.0731 µM [falling, full curve]	
C/C(CC(=O)Nc1ccc(Cl)cc1Cl)=N\NC(=O)c1ccco1	inconclusive: 25.7%		
Cc1ccccc1-n1nc2c(c1NC(=O)c1ccc3c(c1)OCO3)CS(=O)(=O)C2	inconclusive: 11.2%		
Cc1nc(NC(=O)c2ccco2)sc1C(=O)O		inconclusive: 29.1 µM [falling, single point]	

SMILES	lipid storage change, negative = inhibition	Potency	outcome
CCCc1noc2c1C(c1cc(Br)ccc1F)C(C#N)=C(N)N2 (stereo unspecified)	inconclusive: -59.4%		
O=C(O)c1ccc2c(c1)N(Cc1ccccc1)C(=O)c1ccccc1S2	inconclusive: 59.3%		
CCc1ccc(S(=O)(=O)Nc2ccc(C)c(NS(C)(=O)=O)c2)cc1	inconclusive: 57%		
CCOC(=O)c1oc2ccccc2c1COC(=O)CNC(=O)c1ccc(C)cc1	inconclusive: 34.2%		
O=C(c1ccccc1C(=O)N1CCN(c2ccccc2)CC1)N1CCN(c2ccccc2)CC1		inconclusive: 6.51 µM [activator, partial curve]	
Cc1ccc(C=NCc2ccncc2)c(O)c1	inconclusive: -0.984%		
Cc1ccc(NS(=O)(=O)c2ccc3c(c2)NC(=O)CCS3)c(C)c1	inconclusive: -18%		
CN(C)S(=O)(=O)c1cccc(NC(=O)COC(=O)C2CCN(C(=O)c3ccc(F)cc3)CC2)c1	inconclusive: -21.7%		
O=C(c1cc(COc2ccc(F)cc2F)on1)N1C[C@H]2CC[C@H]1C2	inconclusive: 32.9%		
Cc1ccc(C(=O)N/C(=C\c2ccco2)C(=O)N2CCSCC2)cc1C		inconclusive: 0.184 µM [falling, full curve]	
Cc1ccc(-c2csc(NC(=O)CSc3nc4ccccc4o3)n2)cc1	inconclusive: -7.91%		
CC(OC(=O)C1=COCCO1)C(=O)Nc1cccc(S(=O)(=O)N2CCOCC2)c1 (stereo unspecified)	inconclusive: -19.2%		
O=C(CSc1nc2ccccc2c(=O)n1-c1ccccc1)N1CCc2ccccc21	inconclusive: -25.5%		
CCCCN(C(=O)c1ccc([N+](=O)[O-])s1)c1c(N)n(CC(C)C)c(=O)[nH]c1=O	inconclusive		
CCCC(C)C(=O)OCC(=O)NCc1ccc(OC)c(OC)c1 (stereo unspecified)	inconclusive: 14.6%		
COC(=O)[C@H](C(C)C)n1c(C)c(C(C)=O)c(C(C)=O)c1C	inconclusive: -36.9%		
CC1CC(C)CN(C(=O)C(Cc2ccccc2)n2cccc2)C1 (stereo unspecified)	inconclusive: -22%		
COc1ccccc1-n1ccnc(SCC(=O)NC2CCCCC2)c1=O	inconclusive		
O=C(NCc1cccnc1)C(=O)NCC1OCCCN1S(=O)(=O)c1ccccc1 (stereo unspecified)		inconclusive: 1.84 µM [falling, full curve, poor fit]	
CCCCn1c(N(CCOC(C)=O)C(C)=O)nc2ccccc21	inconclusive: -12.6%		
O=C(NC1CCCC1)C(c1ccncc1)N(C(=O)Cn1nnc(-c2ccccc2F)n1)c1cccc(F)c1 (stereo unspecified)	inconclusive: -63.9%		

Ordered by heavy-atom count (ascending): some entries from above
SMILES	lipid storage change, negative = inhibition	Potency	outcome
CN(C)CCCNC(=O)C1CCNCC1			inactive [at 46.1 µM]
CCCC(C)C(=O)OCC(=O)NCc1ccc(OC)c(OC)c1 (stereo unspecified)	inconclusive: 14.6%		
Cn1c(=NC(=O)c2ccc(S(=O)(=O)N3CCCc4ccccc43)cc2)sc2cc(S(C)(=O)=O)ccc21	inconclusive: 30.2%		

(more compounds)

SMILES	lipid storage change, negative = inhibition	Potency	outcome
CCOC(=O)c1nccnc1C(=O)Nc1ccc(C(F)(F)F)cc1		inconclusive: 23.1 µM [falling, single point]	
CCCc1cc(=O)oc2cc(C)c3c(C)coc3c12	inconclusive: 111%		
Cc1ccc(S(=O)(=O)N(C)c2nc3ccccc3[nH]c2=S)cc1	inactive: -4.12%		
Cc1cccc(OC(C)C(=O)N2CCN(Cc3ccc4c(c3)OCO4)CC2)c1 (stereo unspecified)		inconclusive: 29.1 µM [activator, single point]	
C=CCn1c(SCc2cc(=O)n3ccsc3n2)nc2cc(Cl)ccc2c1=O	inconclusive: 16.1%		
COC(=O)c1ccc(N)nc1	inconclusive: -30% [cytotoxic]		
CCO[C@@H]1OC(C(=O)N2CCN(C)CC2)=C[C@H](c2coc3ccccc3c2=O)[C@H]1CCCO	inconclusive: 0.0274%		
Cc1cc(C)c(OCC(=O)OCC(=O)NC2CCC(C)CC2)c(C)c1 (stereo unspecified)	inconclusive: 256%		
COc1cc(S(=O)(=O)NCC2(N3CCCCC3)CCCCC2)ccc1NC(C)=O		inconclusive: 29.1 µM [activator, single point]	
CNC(=O)c1nc(C)n(-c2ccc([N+](=O)[O-])cc2)n1	inconclusive: -41.1%		
CCC(=O)N(c1nnc(SCC(=O)Nc2ccc(N3CCOCC3)cc2)s1)C1CC1	inconclusive: -21.3%		
CN1C(=O)C(=C2CCCCCC2)SC1=S	inactive: 8.65%		
O=C(NNC(=O)c1csc(N2CCOCC2)n1)c1ccc(=O)[nH]c1	inconclusive: -7.13%		
CCc1cc(=O)oc2c(C)c(OCC(=O)NCCN3CCOCC3)ccc12		inconclusive: 25.9 µM [activator, single point]	
CC1CCCCC12NC(=O)N(CC(=O)N1CCN(S(=O)(=O)c3cccs3)CC1)C2=O (stereo unspecified)	inconclusive		
COc1ccc(C(=O)c2sc3nc(-c4ccccc4)ccc3c2N)cc1	inconclusive: 14.1%		
O=C(NCC1OCCc2ccccc21)c1cc(COc2ccc(F)cc2Cl)on1 (stereo unspecified)		inconclusive: 29.1 µM [falling, single point]	
COCCN(C(=O)Nc1ccc(OC)cc1OC)C1CCN(C(C)=O)CC1		inconclusive: 32.6 µM [falling, single point]	
COc1cc(C=C2C(=O)OC(C)(C)OC2=O)ccc1OCC(=O)Nc1ccccc1		inconclusive: 0.116 µM [activator, full curve, poor fit]	
Cc1ccc(O)c(CC(C)C)n1		inconclusive: 2.91 µM [falling, single point]	
CCN(CC)c1ncnc2c1cnn2C		inconclusive: 6.51 µM [falling, single point]	

Part of the list above, with bars between the fields.
SMILES | lipid storage change, negative = inhibition | Potency | outcome
CN1C(=O)C(=C2CCCCCC2)SC1=S | inactive: 8.65% |  | 
O=C(NNC(=O)c1csc(N2CCOCC2)n1)c1ccc(=O)[nH]c1 | inconclusive: -7.13% |  | 

(continued)

SMILES	lipid storage change, negative = inhibition	Potency	outcome
Cc1ccccc1OCC(=O)N1N=C(c2cccnc2)CC1(O)C(F)(F)F (stereo unspecified)		inconclusive: 1.84 µM [activator, partial curve]	
Cc1ccc(C(=O)CCC(=O)Nc2cccnc2)cc1C	inconclusive: 34.6%		
COc1ccc2c(Cl)c(C(=O)N/N=C/c3ccc4c(c3)OCO4)sc2c1	inconclusive: -21.2%		
CCN(CC)S(=O)(=O)c1ccc(NC(=O)CSc2cccc[n+]2[O-])cc1	inconclusive: 112%		
CC(=O)Nc1cccc(NC(=O)CSc2nnc(NC(=O)c3ccco3)s2)c1	inconclusive: 33.8%		
CCCN(C(=O)CSc1nnnn1-c1ccccc1OC)C1CCS(=O)(=O)C1 (stereo unspecified)	inconclusive: -28.1%		
O=C(O)c1cc(S(=O)(=O)O)ccc1O		inconclusive: 23.1 µM [cytotoxic, single point]	
O=C(NNC(=O)c1ccc(F)cc1F)c1ccc2c(c1)OCO2	inconclusive: 24.9%		
O=C(c1ccco1)N1CCN(C(=O)c2ccc(CS(=O)c3cccc(Cl)c3)o2)CC1 (stereo unspecified)		inconclusive: 29.1 µM [activator, single point]	
CCCCC(O)(CCCC)C(=O)NN(C(=O)OCC)c1ccccc1	inactive: -7.04%		
COc1cccc(-c2nc(CSCC(=O)NCC3CCCO3)c(C)o2)c1 (stereo unspecified)		inconclusive: 18.4 µM [activator, single point]	
CCOc1cc2[nH]c(=O)n(CCCCC(=O)NCc3ccco3)c(=O)c2cc1OCC	inconclusive: -25.6%		
Oc1cc2c(cc1CN1CCN(c3ncccn3)CC1)OCO2	inconclusive: 24.1%		
COC(=O)Cc1csc(Nc2ccccc2)n1	inconclusive: -72.7%		
O=C(NCC1CCCO1)c1ccc(NS(=O)(=O)c2cccc([N+](=O)[O-])c2)cc1 (stereo unspecified)	inactive: -23.3%		
S=C(NCc1ccccc1)NNc1nc2ccccc2[nH]1	inconclusive: -28.4%		
N#Cc1c(Cl)c(Cl)c2nnc(-c3ccc(Br)cc3)n2c1Cl	inconclusive: 9.23%		
CC1=C(C(=O)Nc2cc(C(=O)NCCC(C)C)ccc2C)SCCO1	inconclusive: 49.7%		
